Results from paper PMC11640418.

The chains behind the UniProt entries cited, without tags or fusion partners. Where a name states a change or a piece, a line headed by the entry shows the natural chain unless it says otherwise.
UniProt Q0ZGT2: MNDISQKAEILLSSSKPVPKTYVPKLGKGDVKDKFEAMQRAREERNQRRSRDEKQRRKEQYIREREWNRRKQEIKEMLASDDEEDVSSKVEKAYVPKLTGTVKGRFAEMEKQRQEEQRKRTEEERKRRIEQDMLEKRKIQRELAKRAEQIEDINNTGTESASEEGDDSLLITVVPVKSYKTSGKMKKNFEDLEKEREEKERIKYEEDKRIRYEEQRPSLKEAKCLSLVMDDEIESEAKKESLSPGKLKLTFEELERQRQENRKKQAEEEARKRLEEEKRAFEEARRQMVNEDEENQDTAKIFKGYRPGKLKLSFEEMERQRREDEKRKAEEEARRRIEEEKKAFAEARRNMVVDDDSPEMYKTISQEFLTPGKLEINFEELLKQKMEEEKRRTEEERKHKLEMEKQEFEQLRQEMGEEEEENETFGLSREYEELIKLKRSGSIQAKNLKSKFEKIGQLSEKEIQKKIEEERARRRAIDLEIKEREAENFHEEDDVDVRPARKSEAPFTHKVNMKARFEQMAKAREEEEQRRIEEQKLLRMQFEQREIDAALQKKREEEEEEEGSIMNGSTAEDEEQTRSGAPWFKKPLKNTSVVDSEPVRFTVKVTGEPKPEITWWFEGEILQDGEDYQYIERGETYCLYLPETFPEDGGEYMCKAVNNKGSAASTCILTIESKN

The substances below were run against His-tagged full-length human nexilin (human) (UniProt Q0ZGT2) (assay: pull-down; His-nexilin bound to Ni-NTA; lysates of HEK-293 cells overexpressing Flag-tagged nexilin variants; Flag and actin blots; only the target purified).

Row | binding | Substance
1 | binds | Flag-tagged human nexilin lacking exons 6–8 (from UniProt Q0ZGT2-1)
2 | binds | Flag-tagged human nexilin lacking exon 6 (from UniProt Q0ZGT2-1)

The substances below were run against His-tagged full-length human nexilin (human) (UniProt Q0ZGT2) (assay: pull-down; His-nexilin bound to Ni-NTA resin; GST-nexilin variants as bacterial lysate, 2 h, 4 °C, PD buffer (50 mM NaCl, 10 mM Tris/HCl pH 7.5, 0.1% Triton X-100) with 20 mM imidazole; GST blot; only the target purified).

Row | Substance | binding
3 | GST-tagged human nexilin lacking exons 6–7 (from UniProt Q0ZGT2-1) (domain or fragment) | binds weakly
4 | GST-tagged human nexilin lacking exon 3 (from UniProt Q0ZGT2-1) | no binding
5 | GST-tagged human nexilin lacking exons 6–9 (from UniProt Q0ZGT2-1) (domain or fragment) | binds weakly

Continued, values first:

Row | binding | Substance
6 | binds weakly | GST-tagged human nexilin lacking exons 6–8 (from UniProt Q0ZGT2-1)
7 | binds weakly | GST-tagged human nexilin lacking exon 6 (from UniProt Q0ZGT2-1)

These are yes or no findings as the source states them, for the method shown. In cells and extracts the contact can be indirect. A result given as binding can be weak or reduced; the word gives no strength.
